Literature values in US9017985B2, “Photosynthetic microorganisms enriched in selenium using selenohydroxy acid compounds, used thereof in nutrition, cosmetics and pharmacy” (Metabolium, priority 2008, dated 2015).
The name of at least one read-out is uncertain.

Details: diet supplementation; cited from earlier work

C[Se]CC[C@H](N)C(=O)O [L(+)-selenomethionine]
Bioavailability compared with an intake in the form of sodium selenite: better bioavailability
